Test results from publication PMC5457501 (Nature Communications, 2017).
Results are given in words; binding and its absence hold for the method and conditions named.

Target: PrimPol RPA-binding domain (PrimPol_(480-560)) (human) (UniProt Q96LW4)
Test: dynamic light scattering; PrimPol RBD at 200 uM, 20 mM HEPES pH 7.5, 80 mM NaCl, 2 mM DTT, 25 C; both purified

binding: no binding (tested: 200 uM)
B1: PrimPol RPA-binding domain (PrimPol_(480-560)) (domain or fragment, human, UniProt Q96LW4 480-560, looked up)
chain: TTDEADETRSNETQNPHKPSPSRLSTGASADAVWDNGIDDAYFLEATEDAELAEAAENSLLSYNSEVDEIPDELIIEVLQE
notes: 15N-enriched for one NMR sample; also called PrimPolRBD; RBD; source: E. coli BL21(pLysS), purified (Ni Sepharose, Q Sepharose, Superdex 75)
